Assay results: PubChem BioAssay AID445 (National Center for Advancing Translational Sciences (NCATS), 2006)
The other results are listed elsewhere or left out. Further columns of the screen follow, without active or inactive calls. Most of these compounds were active or inconclusive in the main read-out, so they are no random draw. Words in brackets tell the shape of the fitted curve; partial curves, single points and poor fits give uncertain potencies.

Assay: IkB Signaling
Details: ABC-DLBCL IkBa-CBG/CBR dual luciferase ratio (green luciferase fused to IkBa over red control in OCI-Ly3 lymphoma cells), 4 h
How it was run: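 In this assay, an IκBα–CBG68 fusion accumulates when IKK-driven degradation is blocked; native CBR normalizes for cell number. OCI-Ly3 cells were treated 4 h with compound and doxycycline, then green and red light read after Chroma-Glo addition.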

[1] = measured here: control luc red channel unless noted

**Q.** For `COc1ccc(S(=O)(=O)Nc2ccc3c(c2)CCCN3S(=O)(=O)c2ccc(C)cc2)cc1F`, which AC50 [1] is on record?
**A.** 31.6 µM [falling, single point]

**Q.** With `CCOc1ccc(S(=O)(=O)Nc2cc(OC)ccc2OC)cc1` as the compound, how does the AC50 [1] read?
**A.** 2.51 µM [rising, full curve] [measured here: IkB-luc green channel]

**Q.** For `CCC(CC)C(=O)Nc1nc2c(s1)CC(C)CC2` (configuration not stated), which AC50 [1] is on record?
**A.** 25.1 µM [falling, partial curve]

**Q.** With `Cc1cc(C)cc(NC(=O)Cn2nnc(-c3nc(-c4ccncc4)no3)c2N)c1` as the compound, how does the AC50 [1] read?
**A.** 2 µM [rising, single point]

**Q.** Which AC50 [1] does the source give for `Cc1cc2c(cc3c(SCc4nc(-c5ccccc5)oc4C)nnc(C)n32)o1` here?
**A.** 20 µM [falling, single point]

**Q.** With `Cc1ccc(N2CCN(S(=O)(=O)c3ccc(F)c(C(=O)Nc4ccc(Cl)cc4Cl)c3)CC2C)cc1` (configuration not stated) as the compound, how does the AC50 [1] read?
**A.** 1.26 µM [falling, full curve, poor fit]

**Q.** Which AC50 [1] does the source give for `CC1CCN(CCC(=O)N2CCCc3c2c(=O)oc2ccc(O)cc32)CC1` here?
**A.** 12.6 µM [falling, partial curve]

**Q.** With `CCn1ccc2c(OCC(=O)Nc3ccccc3C)cccc2c1=O` as the compound, how does the AC50 [1] read?
**A.** 0.316 µM [falling, full curve, poor fit]

**Q.** With `CCOC(=O)Cn1c(=O)oc2cc(S(=O)(=O)N3CCN(c4ccc(C(C)=O)cc4)CC3)ccc21` as the compound, how does the AC50 [1] read?
**A.** 15.8 µM [falling, partial curve]

**Q.** With `CCOc1ccc(S(=O)(=O)c2cn(Cc3cc(C)ccc3C)c3ccc(OCC)cc3c2=O)cc1` as the compound, how does the AC50 [1] read?
**A.** 1.58 µM [falling, full curve]

**Q.** With `COc1cccc(-c2nc(CS(=O)(=O)CC(=O)Nc3cccc(C)c3C)c(C)o2)c1` as the compound, how does the AC50 [1] read?
**A.** 20 µM [falling, partial curve]

**Q.** For `COc1cccc(C(=O)Nc2cccc(-c3nc4ncccc4o3)c2C)c1`, which AC50 [1] is on record?
**A.** 3.16 µM [falling, full curve, poor fit]

**Q.** For `CCOc1ccc(NC(=O)c2cc(S(=O)(=O)N3CCOCC3)ccc2F)cc1`, which AC50 [1] is on record?
**A.** 10 µM [falling, partial curve]

**Q.** With `CCCOC(=O)c1ccc(Cn2nnc3sc4c(c3c2=O)CCC(C)C4)cc1` (configuration not stated) as the compound, how does the AC50 [1] read?
**A.** 6.31 µM [falling, partial curve]

**Q.** Which AC50 (measured here: IkB-luc green channel) does the source give for `CO[C@@H]1CC[C@@]2(C)[C@@H](CC[C@@]3(C)[C@H]2CC=C2[C@H]4CC(C)(C)[C@H](O)[C@@H](OC(C)=O)[C@]4(CO)[C@H](O)C[C@]23C)[C@@]1(C)CO` (tested in a mixture with another compound) here?
**A.** 7.94 µM [rising, partial curve]

**Q.** What about the AC50 (measured here: control luc red channel) of the same compound?
**A.** 10 µM [rising, partial curve]

**Q.** With `COc1ccccc1NC(=O)C1=C(C)Nc2nc(SCc3ccccc3)nn2C1c1cccnc1` (configuration not stated) as the compound, how does the AC50 [1] read?
**A.** 12.6 µM [falling, partial curve, poor fit]

**Q.** With `CCOC(=O)c1cc(C#N)c(SCC(=O)c2cc(C#N)c(SC)nc2C)[nH]c1=O` as the compound, how does the AC50 [1] read?
**A.** 39.8 µM [falling, single point]

**Q.** With `COc1ccc(CCNC(=O)CCn2c(=O)c3ccccc3n(CC(=O)Nc3ccc(C)cc3C)c2=O)cc1OC` as the compound, how does the AC50 [1] read?
**A.** 0.398 µM [rising, full curve]

**Q.** For `COc1ccc(-c2cn3nc(SCC(=O)Nc4ccc(C)c(Cl)c4)ccc3n2)cc1`, which AC50 [1] is on record?
**A.** 2.51 µM [falling, full curve]

**Q.** For `Cc1ccc(NC(c2ccc(Cl)cc2)c2nnc(-c3cccc(F)c3)o2)cc1C` (configuration not stated), which AC50 [1] is on record?
**A.** 25.1 µM [falling, single point]

**Q.** For `CCN(CCCNC(=O)c1cc(Nc2ccccc2OC)nc2ccccc12)c1cccc(C)c1`, which AC50 [1] is on record?
**A.** 2.51 µM [falling, full curve]

**Q.** With `COc1ccc(OC)c(CCNC(=O)c2c3c(nc4ccccc24)C(=O)N(C2CCCCC2)C3)c1` as the compound, how does the AC50 [1] read?
**A.** 10 µM [falling, partial curve]

**Q.** For `O=S(=O)(NCC(Nc1ccc(Cl)cc1)c1ccccc1)c1ccccc1` (configuration not stated), which AC50 [1] is on record?
**A.** 15.8 µM [falling, partial curve]

**Q.** With `COc1cc(NC(=O)Nc2ccccc2)c(OC)cc1NC(=O)CN1CCCCC1` as the compound, how does the AC50 [1] read?
**A.** 31.6 µM [falling, partial curve]

**Q.** For `CCCCCCSc1nsc(NC(C)=O)n1`, which AC50 [1] is on record?
**A.** 0.398 µM [rising, full curve]

**Q.** With `Cc1ccc(CNCc2c(C(=O)O)n(Cc3ccc(C)cc3)c3cc(C)ccc23)cc1` as the compound, how does the AC50 [1] read?
**A.** 25.1 µM [falling, partial curve]

**Q.** With `COc1ccc(-c2noc(CNS(=O)(=O)c3ccc(Br)cc3)n2)cc1OC` as the compound, how does the AC50 [1] read?
**A.** 31.6 µM [falling, single point]

**Q.** With `Cc1ccc(-c2noc(CN(C(=O)COc3cc(C)cc(C)c3C)C(C)C)n2)cc1` as the compound, how does the AC50 [1] read?
**A.** 25.1 µM [falling, single point]

**Q.** With `Cn1c(=O)c2c(c3ccccc31)OC(=O)CC2c1cccc(F)c1` (configuration not stated) as the compound, how does the AC50 [1] read?
**A.** 20 µM [falling, single point]

**Q.** Which AC50 [1] does the source give for `O=C(Nc1ccc(Cl)cc1)N1CCN(c2ccc3nnc(-c4ccccc4)n3n2)CC1` here?
**A.** 25.1 µM [falling, single point]

**Q.** For `Cc1ccc(-c2nnc3sc(CCc4ccccc4)nn23)cc1`, which AC50 [1] is on record?
**A.** 0.2 µM [rising, full curve, poor fit]

**Q.** Which AC50 [1] does the source give for `O=C(C1CCC(Cn2c(=O)c3sccc3n(Cc3ccccc3F)c2=O)CC1)N1CCCCC1` (configuration not stated) here?
**A.** 31.6 µM [falling, single point]

**Q.** For `COc1ccccc1N(CC(=O)NCCSCc1cccc(Cl)c1)S(C)(=O)=O`, which AC50 [1] is on record?
**A.** 12.6 µM [falling, partial curve]

**Q.** For `CC(C)NC(=O)C1CCN(C(=O)c2cc3sccc3n2Cc2ccc(Cl)cc2)CC1`, which AC50 [1] is on record?
**A.** 5.01 µM [falling, partial curve]

**Q.** For `Cc1cc(C)c(NC(=O)c2ncoc2-c2ccco2)c(C)c1`, which AC50 [1] is on record?
**A.** 39.8 µM [falling, single point]

**Q.** For `COC(=O)c1cnn2c(C)c(Cc3c(C)cc(C)cc3C)c(C)nc12`, which AC50 [1] is on record?
**A.** 31.6 µM [falling, partial curve]

**Q.** For `O=C(Nc1nnc(S(=O)(=O)N2CCCc3ccccc32)s1)c1ccccc1`, which AC50 [1] is on record?
**A.** 1 µM [rising, single point]

**Q.** Which AC50 [1] does the source give for `COc1ccc(NC(=O)CCn2c(=O)c3cccn3c3ccccc32)c(OC)c1` here?
**A.** 0.02 µM [falling, full curve, poor fit]

**Q.** With `Cc1[nH]nc(-c2ccc(O)c(C)c2O)c1-c1cnn(-c2ccccc2)c1` as the compound, how does the AC50 [1] read?
**A.** 10 µM [falling, partial curve]

**Q.** Which AC50 [1] does the source give for `CCNc1ccc2c(Cl)cc(=O)oc2c1` here?
**A.** 0.794 µM [falling, full curve]

**Q.** For `CC(=O)c1ccc(NC(=O)CN(C)S(=O)(=O)c2cccc3nsnc23)cc1`, which AC50 [1] is on record?
**A.** 15.8 µM [falling, partial curve]

**Q.** Which AC50 [1] does the source give for `COc1ccccc1-c1cc2nc(C)c(CCC(=O)NCc3cccc(Cl)c3)c(C)n2n1` here?
**A.** 0.316 µM [falling, full curve]

**Q.** Which AC50 [1] does the source give for `CCCCn1c(C(C)NC(=O)c2ccccc2)nc2ccccc21` (configuration not stated) here?
**A.** 20 µM [falling, partial curve, poor fit]

**Q.** For `COC(=O)c1c(NC(=O)CS(=O)(=O)c2ccc(C)cc2)sc2c1CCCC2`, which AC50 [1] is on record?
**A.** 10 µM [falling, partial curve]

**Q.** Which AC50 [1] does the source give for `O=C(Nc1cccc(Cl)c1)c1ccc(F)c(S(=O)(=O)N2CCC3(CC2)OCCO3)c1` here?
**A.** 25.1 µM [falling, partial curve]

**Q.** With `CCN(C(=O)Cn1nnc2sc(-c3ccccc3)cc2c1=O)c1cccc(C)c1` as the compound, how does the AC50 [1] read?
**A.** 15.8 µM [falling, partial curve]

**Q.** For `Cc1cc(NC(=O)CCNS(=O)(=O)c2ccc3c(c2)oc(=O)n3C)ccc1Br`, which AC50 [1] is on record?
**A.** 39.8 µM [falling, single point]

**Q.** Which AC50 [1] does the source give for `CCN(CC)C(=O)c1cc(-c2ccc(Cl)cc2)on1` here?
**A.** 39.8 µM [falling, single point]

**Q.** Which AC50 [1] does the source give for `CCc1nn(CC(=O)NCc2ccccc2Cl)c(=O)c2cccn12` here?
**A.** 3.98 µM [falling, full curve]

**Q.** Which AC50 [1] does the source give for `Cc1nc(-c2ccc(S(=O)(=O)Nc3ccc(C)c(N(C)C)c3)cc2)co1` here?
**A.** 0.0794 µM [falling, full curve, poor fit]

**Q.** With `O=C(COc1ccccc1[N+](=O)[O-])Nc1ccc(-c2nc3ccccc3s2)cc1` as the compound, how does the AC50 [1] read?
**A.** 0.0126 µM [rising, full curve, poor fit]

**Q.** For `COc1ccccc1-n1c(-c2ccc(C)cc2)cn2c3c(=O)n(C)c(=O)n(C)c3nc12`, which AC50 [1] is on record?
**A.** 0.00631 µM [rising, full curve, poor fit]

**Q.** For `COc1ccc(NC(=O)c2cnc[nH]2)cc1`, which AC50 [1] is on record?
**A.** 0.316 µM [rising, full curve, poor fit]

**Q.** With `COc1ccc(S(=O)(=O)c2cc(NS(=O)(=O)c3ccc(Cl)cc3)c(C)c(C)c2O)cc1` as the compound, how does the AC50 [1] read?
**A.** 20 µM [falling, partial curve]

**Q.** For `CCc1ccccc1NC(=O)c1cc(S(=O)(=O)N2CCCc3ccccc32)ccc1F`, which AC50 [1] is on record?
**A.** 25.1 µM [falling, single point]

**Q.** For `CC(C)CCn1c(=O)c2sccc2n2c(CCCC(=O)NCc3ccc(F)cc3)nnc12`, which AC50 [1] is on record?
**A.** 31.6 µM [falling, partial curve]

**Q.** For `Fc1cccc(-n2ncc3c2ncn2nc(-c4ccccc4Cl)nc32)c1`, which AC50 [1] is on record?
**A.** 0.794 µM [rising, full curve, poor fit]

**Q.** Which AC50 [1] does the source give for `Cc1cccc(N2CCN(C(=O)CCn3c(=O)c4cccn4c4cccnc43)CC2)c1C` here?
**A.** 0.00631 µM [falling, full curve, poor fit]

**Q.** With `CCOc1ccc(N(C)C(CNS(=O)(=O)c2ccccc2)c2ccccc2)cc1` (configuration not stated) as the compound, how does the AC50 [1] read?
**A.** 31.6 µM [falling, partial curve]

**Q.** For `N#Cc1cccc(NC(=O)c2cc3c(s2)-c2ccc(Cl)cc2SC3)c1`, which AC50 [1] is on record?
**A.** 3.16 µM [rising, partial curve]

**Q.** Which AC50 [1] does the source give for `COc1ccccc1N1CCN(C(=O)c2cc(-c3ccccc3O)on2)CC1` here?
**A.** 1.58 µM [falling, full curve]
